# Measurements from the supplement of paper PMC12595434, “Development of retinoid nuclear receptor pathway antagonists through targeting aldehyde dehydrogenase 1A3” (iScience, 2025).
# Amino acid sequences for entries named in this document (tags omitted). A change or cut given only in a name is not applied to a line headed by its entry.
# UniProt Q9UQ80: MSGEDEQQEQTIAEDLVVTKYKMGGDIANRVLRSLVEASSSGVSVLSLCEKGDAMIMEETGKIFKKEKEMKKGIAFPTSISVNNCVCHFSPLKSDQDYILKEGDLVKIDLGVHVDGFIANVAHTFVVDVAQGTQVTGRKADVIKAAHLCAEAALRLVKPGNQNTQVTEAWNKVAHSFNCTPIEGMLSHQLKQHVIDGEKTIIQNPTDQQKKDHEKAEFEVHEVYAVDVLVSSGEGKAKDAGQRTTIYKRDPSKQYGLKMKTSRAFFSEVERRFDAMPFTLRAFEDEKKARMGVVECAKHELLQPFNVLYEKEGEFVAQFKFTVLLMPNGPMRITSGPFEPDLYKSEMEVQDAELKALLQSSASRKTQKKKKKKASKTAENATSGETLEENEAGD
# UniProt Q9UL03, whole entry: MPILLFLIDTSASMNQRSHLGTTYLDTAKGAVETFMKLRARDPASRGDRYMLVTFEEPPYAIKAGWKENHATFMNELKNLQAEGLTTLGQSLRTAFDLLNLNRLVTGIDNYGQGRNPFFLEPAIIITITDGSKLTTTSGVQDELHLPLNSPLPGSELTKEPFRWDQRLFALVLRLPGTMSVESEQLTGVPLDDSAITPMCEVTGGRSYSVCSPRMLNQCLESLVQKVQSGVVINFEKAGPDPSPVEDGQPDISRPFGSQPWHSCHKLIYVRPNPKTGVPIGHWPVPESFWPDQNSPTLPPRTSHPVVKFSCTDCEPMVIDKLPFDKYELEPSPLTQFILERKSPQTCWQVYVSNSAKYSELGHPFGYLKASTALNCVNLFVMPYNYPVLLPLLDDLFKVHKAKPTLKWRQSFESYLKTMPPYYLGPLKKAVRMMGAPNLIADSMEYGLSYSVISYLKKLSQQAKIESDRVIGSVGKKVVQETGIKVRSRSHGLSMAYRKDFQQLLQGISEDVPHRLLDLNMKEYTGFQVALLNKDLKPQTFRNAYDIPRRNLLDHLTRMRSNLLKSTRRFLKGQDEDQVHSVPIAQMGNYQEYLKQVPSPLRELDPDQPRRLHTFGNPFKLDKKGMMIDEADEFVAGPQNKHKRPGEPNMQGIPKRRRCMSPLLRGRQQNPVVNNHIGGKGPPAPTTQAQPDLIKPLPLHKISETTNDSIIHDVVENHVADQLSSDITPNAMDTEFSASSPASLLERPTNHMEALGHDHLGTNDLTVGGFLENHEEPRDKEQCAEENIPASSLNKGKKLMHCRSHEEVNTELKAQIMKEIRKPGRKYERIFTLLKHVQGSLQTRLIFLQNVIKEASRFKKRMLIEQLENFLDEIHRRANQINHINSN
# UniProt Q9UIA9: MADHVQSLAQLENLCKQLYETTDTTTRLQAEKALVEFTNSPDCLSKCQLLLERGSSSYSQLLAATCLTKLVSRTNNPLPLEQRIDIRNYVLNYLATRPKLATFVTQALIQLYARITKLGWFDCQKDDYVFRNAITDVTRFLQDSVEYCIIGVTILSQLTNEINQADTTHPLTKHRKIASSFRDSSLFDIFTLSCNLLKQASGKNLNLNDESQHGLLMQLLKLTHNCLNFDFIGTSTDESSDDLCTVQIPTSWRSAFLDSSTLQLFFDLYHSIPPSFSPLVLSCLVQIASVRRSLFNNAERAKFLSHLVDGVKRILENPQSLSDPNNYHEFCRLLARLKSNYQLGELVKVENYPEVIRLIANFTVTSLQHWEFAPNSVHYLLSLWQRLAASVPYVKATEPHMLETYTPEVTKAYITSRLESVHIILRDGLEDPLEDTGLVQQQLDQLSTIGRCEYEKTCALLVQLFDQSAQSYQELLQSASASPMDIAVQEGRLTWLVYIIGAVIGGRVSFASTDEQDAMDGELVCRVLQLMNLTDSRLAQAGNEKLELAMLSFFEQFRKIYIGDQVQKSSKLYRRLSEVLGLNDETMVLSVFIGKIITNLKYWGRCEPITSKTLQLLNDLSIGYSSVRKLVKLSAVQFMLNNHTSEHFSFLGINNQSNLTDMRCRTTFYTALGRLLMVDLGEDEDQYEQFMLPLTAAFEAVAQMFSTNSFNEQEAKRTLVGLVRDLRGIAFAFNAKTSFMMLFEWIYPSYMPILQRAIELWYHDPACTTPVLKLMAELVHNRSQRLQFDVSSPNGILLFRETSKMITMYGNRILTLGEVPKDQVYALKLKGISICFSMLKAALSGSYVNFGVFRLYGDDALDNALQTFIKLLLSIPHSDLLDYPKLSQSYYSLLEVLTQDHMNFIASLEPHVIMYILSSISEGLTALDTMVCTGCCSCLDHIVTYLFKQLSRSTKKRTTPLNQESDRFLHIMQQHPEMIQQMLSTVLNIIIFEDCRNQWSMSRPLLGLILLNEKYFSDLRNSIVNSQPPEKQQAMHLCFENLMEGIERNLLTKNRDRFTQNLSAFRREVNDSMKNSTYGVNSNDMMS
# UniProt Q9UJT0: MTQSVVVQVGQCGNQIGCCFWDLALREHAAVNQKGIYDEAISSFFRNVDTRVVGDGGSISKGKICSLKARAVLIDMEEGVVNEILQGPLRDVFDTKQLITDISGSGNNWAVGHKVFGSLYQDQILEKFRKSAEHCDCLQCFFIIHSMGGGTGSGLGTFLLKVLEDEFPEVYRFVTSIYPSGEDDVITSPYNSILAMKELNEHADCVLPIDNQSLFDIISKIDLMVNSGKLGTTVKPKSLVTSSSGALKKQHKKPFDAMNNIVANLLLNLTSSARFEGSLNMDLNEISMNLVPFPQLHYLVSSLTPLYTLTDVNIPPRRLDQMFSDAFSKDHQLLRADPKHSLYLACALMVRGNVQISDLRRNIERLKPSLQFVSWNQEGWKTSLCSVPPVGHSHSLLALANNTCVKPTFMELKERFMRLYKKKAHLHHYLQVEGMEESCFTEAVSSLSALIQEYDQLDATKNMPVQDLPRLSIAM
# UniProt Q9UI09, whole entry: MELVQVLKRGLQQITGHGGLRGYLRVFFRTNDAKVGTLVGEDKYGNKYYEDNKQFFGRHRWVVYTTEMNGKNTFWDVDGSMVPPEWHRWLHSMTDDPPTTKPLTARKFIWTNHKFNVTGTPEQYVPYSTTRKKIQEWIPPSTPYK
# UniProt Q9UJU6: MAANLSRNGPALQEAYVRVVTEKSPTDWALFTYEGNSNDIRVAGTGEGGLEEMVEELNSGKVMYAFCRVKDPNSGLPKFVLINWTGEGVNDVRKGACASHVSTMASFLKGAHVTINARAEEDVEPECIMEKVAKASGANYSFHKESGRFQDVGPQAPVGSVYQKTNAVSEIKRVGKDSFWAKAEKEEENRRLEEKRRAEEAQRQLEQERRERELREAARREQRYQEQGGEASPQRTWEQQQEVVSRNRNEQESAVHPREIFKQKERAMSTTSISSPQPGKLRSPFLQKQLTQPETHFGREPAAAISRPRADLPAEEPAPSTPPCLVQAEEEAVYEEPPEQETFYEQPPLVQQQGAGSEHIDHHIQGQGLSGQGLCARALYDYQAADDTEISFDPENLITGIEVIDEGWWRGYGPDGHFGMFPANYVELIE
# UniProt Q9UK41: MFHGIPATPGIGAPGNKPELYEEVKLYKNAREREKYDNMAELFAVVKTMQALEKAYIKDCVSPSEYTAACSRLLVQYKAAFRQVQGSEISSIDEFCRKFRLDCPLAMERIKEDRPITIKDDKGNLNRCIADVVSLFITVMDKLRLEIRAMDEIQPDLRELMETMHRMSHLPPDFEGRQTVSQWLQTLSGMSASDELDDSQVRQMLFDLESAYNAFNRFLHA
# UniProt Q9UHQ4: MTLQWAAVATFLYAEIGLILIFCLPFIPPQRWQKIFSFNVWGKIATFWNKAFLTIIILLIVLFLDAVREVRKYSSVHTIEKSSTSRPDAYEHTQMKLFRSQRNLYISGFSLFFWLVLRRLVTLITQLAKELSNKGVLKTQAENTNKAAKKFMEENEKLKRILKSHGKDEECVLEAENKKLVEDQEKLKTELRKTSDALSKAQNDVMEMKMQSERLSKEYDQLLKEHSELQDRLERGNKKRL
# UniProt Q9UID3: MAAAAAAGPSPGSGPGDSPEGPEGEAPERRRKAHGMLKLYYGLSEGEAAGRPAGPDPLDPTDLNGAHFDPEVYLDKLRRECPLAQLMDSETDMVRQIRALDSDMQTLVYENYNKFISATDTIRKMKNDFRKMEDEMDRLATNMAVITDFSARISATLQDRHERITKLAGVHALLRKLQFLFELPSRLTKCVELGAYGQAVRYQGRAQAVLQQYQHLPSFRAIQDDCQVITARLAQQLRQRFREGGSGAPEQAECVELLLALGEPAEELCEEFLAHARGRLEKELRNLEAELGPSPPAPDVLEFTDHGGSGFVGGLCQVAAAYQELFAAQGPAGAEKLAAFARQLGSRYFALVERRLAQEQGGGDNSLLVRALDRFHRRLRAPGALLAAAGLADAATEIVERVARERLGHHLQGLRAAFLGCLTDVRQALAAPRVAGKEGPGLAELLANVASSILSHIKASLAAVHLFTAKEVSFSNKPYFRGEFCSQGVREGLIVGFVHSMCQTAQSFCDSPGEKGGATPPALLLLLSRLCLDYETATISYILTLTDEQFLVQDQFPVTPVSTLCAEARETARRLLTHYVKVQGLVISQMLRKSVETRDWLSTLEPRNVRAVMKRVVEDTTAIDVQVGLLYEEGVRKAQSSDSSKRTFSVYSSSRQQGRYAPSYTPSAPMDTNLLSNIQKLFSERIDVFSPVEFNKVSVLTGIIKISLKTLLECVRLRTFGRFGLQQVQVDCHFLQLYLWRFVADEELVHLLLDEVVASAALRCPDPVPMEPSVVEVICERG
# UniProt Q9ULX3: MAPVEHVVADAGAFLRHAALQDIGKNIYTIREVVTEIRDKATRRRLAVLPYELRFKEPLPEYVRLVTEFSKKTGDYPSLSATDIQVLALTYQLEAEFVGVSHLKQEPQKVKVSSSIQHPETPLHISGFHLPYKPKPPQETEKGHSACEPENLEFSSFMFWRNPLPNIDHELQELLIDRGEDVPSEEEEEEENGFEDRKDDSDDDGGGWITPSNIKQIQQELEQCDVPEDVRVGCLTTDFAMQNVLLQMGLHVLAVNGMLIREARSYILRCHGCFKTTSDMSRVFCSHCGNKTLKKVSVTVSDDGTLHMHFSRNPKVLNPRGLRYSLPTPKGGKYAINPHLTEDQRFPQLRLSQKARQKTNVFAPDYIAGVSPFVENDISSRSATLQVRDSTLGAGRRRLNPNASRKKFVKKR
# UniProt Q9Y2G3: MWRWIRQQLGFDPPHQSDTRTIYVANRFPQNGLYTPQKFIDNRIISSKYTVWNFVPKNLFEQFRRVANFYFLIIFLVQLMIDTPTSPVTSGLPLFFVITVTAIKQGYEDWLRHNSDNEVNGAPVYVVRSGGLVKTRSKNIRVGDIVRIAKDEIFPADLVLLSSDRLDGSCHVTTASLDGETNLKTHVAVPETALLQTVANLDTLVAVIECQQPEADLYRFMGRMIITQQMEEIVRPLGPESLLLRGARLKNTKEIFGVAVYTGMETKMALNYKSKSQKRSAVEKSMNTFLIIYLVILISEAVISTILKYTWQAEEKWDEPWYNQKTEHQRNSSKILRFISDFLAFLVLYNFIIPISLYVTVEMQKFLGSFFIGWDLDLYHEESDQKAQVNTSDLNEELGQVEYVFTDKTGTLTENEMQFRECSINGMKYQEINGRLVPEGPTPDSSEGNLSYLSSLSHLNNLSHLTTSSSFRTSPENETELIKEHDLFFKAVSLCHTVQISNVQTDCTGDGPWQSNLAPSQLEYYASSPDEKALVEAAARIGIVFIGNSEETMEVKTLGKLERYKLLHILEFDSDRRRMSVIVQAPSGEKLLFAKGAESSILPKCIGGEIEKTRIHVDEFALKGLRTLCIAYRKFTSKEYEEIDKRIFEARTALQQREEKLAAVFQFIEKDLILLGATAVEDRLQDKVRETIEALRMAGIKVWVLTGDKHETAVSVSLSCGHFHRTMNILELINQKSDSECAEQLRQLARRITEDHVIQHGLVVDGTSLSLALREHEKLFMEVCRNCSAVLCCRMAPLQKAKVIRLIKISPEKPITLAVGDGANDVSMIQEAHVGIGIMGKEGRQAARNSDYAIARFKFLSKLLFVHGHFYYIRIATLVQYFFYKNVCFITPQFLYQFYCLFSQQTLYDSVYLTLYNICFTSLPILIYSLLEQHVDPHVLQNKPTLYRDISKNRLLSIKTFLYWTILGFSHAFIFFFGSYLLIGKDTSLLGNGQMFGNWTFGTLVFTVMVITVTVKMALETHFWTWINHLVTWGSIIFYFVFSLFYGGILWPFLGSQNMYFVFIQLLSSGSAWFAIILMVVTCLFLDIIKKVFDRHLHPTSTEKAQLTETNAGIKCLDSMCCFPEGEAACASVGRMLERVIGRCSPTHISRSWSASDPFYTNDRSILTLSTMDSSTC
# UniProt Q9UL25: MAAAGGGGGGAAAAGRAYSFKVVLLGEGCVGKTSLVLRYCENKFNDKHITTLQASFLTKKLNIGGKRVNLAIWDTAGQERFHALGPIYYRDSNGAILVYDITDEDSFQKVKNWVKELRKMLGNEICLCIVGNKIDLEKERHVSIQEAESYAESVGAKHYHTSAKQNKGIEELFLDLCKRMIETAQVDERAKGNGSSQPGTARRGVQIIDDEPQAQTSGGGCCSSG
# Some of the results follow. Single values of this set are uncertain.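 Many melting curves are irregular; where none melted, Tm was taken as 64 °C.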
# Compound: CCc1cnccc1C(=O)Nc1cc2c(cc1F)NC(=O)CC2
# Assay: melting temperature shift (DMSO Tm minus MBE1-treated Tm) in cellular thermal proteome profiling; higher = less thermal stabilization by MBE1 (negative = stabilized by MBE1)
# Conditions: A375
Target,melting temperature shift (MBE1 concentration: 100 nM),melting temperature shift (MBE1 concentration: 1 uM)
ANAPC10 (UniProt Q9UM13),-0.28 °C,0.232 °C
PA2G4 (UniProt Q9UQ80),-0.241 °C,0.0604 °C
UniProt Q9UL03,-0.983 °C,-0.395 °C
UniProt Q9UPW5,-0.872 °C,0.557 °C
XPO7 (UniProt Q9UIA9),-0.188 °C,-0.221 °C
FBXO2 (UniProt Q9UK22),-0.0855 °C,1.61 °C
MTMR6 (UniProt Q9Y217),0.824 °C,-0.342 °C
UniProt Q9UJT0,-0.556 °C,0.275 °C
NDUFA12 (UniProt Q9UI09),-0.55 °C,-0.507 °C
STUB1 (UniProt Q9UNE7),-0.448 °C,-0.0384 °C
DBNL (UniProt Q9UJU6),0.202 °C,-0.33 °C
PARP2 (UniProt Q9UGN5),-0.538 °C,-0.327 °C
SRRM2 (UniProt Q9UQ35),0.055 °C,0.843 °C
MKLN1 (UniProt Q9UL63),-0.406 °C,0.147 °C
WARS2 (UniProt Q9UGM6),-0.988 °C,-0.851 °C
UniProt Q9UKG9,1.72 °C,1.28 °C
VPS28 (UniProt Q9UK41),1.45 °C,-0.812 °C

# Single records, as listed above. Values in the order: melting temperature shift (MBE1 concentration: 100 nM) | melting temperature shift (MBE1 concentration: 1 uM)
# UniProt Q9UJT0 in the list: -0.556 °C | 0.275 °C
# UniProt Q9UKG9 in the list: 1.72 °C | 1.28 °C

# Continuation:

Target,melting temperature shift (MBE1 concentration: 100 nM),melting temperature shift (MBE1 concentration: 1 uM)
BCAP29 (UniProt Q9UHQ4),0.2 °C,-1.52 °C
KIDINS220 (UniProt Q9ULH0),-0.127 °C,-0.201 °C
VPS51 (UniProt Q9UID3),-0.0272 °C,-0.0822 °C
UniProt Q9UGU0,1.14 °C,1.01 °C
CNOT7 (UniProt Q9UIV1),-0.0733 °C,-0.519 °C
NOB1 (UniProt Q9ULX3),-0.103 °C,0.0916 °C
ATP11B (UniProt Q9Y2G3),-0.888 °C,-0.605 °C
CIZ1 (UniProt Q9ULV3),-0.11 °C,1.03 °C
RAB21 (UniProt Q9UL25),-2.73 °C,-1.99 °C
SLC25A13 (UniProt Q9UJS0),-1.58 °C,0.14 °C
ASAP1 (UniProt Q9ULH1),0.824 °C,0.556 °C
UniProt Q9UMN6,-1.12 °C,-0.841 °C
ZC3H4 (UniProt Q9UPT8),-0.532 °C,-2.9 °C
DRG1 (UniProt Q9Y295),-1.1 °C,0.53 °C
RAB23 (UniProt Q9ULC3),-0.932 °C,0.389 °C
TAOK2 (UniProt Q9UL54),-1.36 °C,-1.52 °C
PACSIN2 (UniProt Q9UNF0),-0.0122 °C,0.165 °C
